In all, about 33,000 sequences were measured (“E-score (-0.5 to 0.5)”: median about -0.0014, highest 2% from about 0.25 on). This is one part of the list.
The sequences below were run against T1, Cad1 (UniProt P24813) (assay: PBM E-score (8-mer binding enrichment) (E-score (-0.5 to 0.5)); higher = stronger / more preferred TF binding). Details: protein concentration: 100 nM; construct: GST-full length.
T1 sequence: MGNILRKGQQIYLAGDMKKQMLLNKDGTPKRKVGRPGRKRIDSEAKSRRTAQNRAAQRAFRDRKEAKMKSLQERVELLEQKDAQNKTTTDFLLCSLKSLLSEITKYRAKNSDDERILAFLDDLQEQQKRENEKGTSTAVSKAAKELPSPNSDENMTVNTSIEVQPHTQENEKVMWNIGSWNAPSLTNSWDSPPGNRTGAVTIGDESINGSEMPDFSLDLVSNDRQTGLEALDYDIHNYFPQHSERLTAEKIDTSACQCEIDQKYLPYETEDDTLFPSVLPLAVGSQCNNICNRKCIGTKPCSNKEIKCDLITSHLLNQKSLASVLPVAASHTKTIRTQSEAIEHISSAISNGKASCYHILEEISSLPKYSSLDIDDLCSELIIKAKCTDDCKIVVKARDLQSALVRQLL
Summary of the method: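 E-scores (a modified Wilcoxon-Mann-Whitney statistic) were assigned by the Universal PBM Analysis Suite to every ungapped eight-base word pooled with its reverse complement. The input came from universal all-10-mer Agilent arrays made double-stranded by primer extension and probed with GST-tagged yeast transcription factors at about 100-200 nM. Fluorescent anti-GST detected bound protein, and masliner normalised the scans.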

Sequence	PBM E-score
CCGACCCG	0.0539
CCGGGTGC	-0.053
CAAATGTA	0.219
CTATCTTA	0.0111
GCTAAATA	0.156
CTCAACAG	0.0205
CCCTGATC	-0.18
CTGTCATA	0.15
ACCGGTCG	-0.118
CGAGAAGC	-0.182
CCCATCAC	0.0107
ATCACAGC	0.0755
AATGGGCC	-0.231
CCTGCTAC	0.0146
ACAGAACA	0.0452
ACTCCGCA	-0.0105
CCATGGCA	0.0272
TAGGCGCA	0.0403
GAAACAGC	-0.0737
CCGCTAAC	-0.00623
GCGGAGTA	0.0675
ACCCGGGA	-0.0703
CACAATCG	0.0785
CCCGTCTA	-0.121
ACAGACCG	-0.126

Sequence	PBM E-score
ACACATCA	-0.151
GAGGGGAC	-0.0993
CGATTAAC	-0.0107
CATTACCG	0.0345
ACTTAAGT	0.212
ATTGTGCG	0.0629
ACAGAGCG	-0.112
TCTGGACA	0.0422
ACTGTCTC	-0.0617
CATGAGTA	-0.0686
AGGATTCG	0.018
AGCTTCGA	-0.12
ATGGTGCG	0.0364
ACGGCCCT	-0.0728
CTAAGCTC	-0.0394
CACTTAAG	0.0974
GAGTTTGC	-0.123
GCACGCCC	-0.00875
GCCCATGA	0.0588
GGTCCTCA	-0.0754
AATCATGT	0.235
ATGCCTTA	-0.158
ATATTTGA	0.0318
AGTCACCA	-0.113
AATGGCAG	-0.0159

Reformatted in markdown: entries from further up

| Sequence | PBM E-score |
| --- | --- |
| CCCTGATC | -0.18 |
| CTGTCATA | 0.15 |
| ACCGGTCG | -0.118 |
| CCCATCAC | 0.0107 |
| ATCACAGC | 0.0755 |
| AATGGGCC | -0.231 |
| CCTGCTAC | 0.0146 |
| ACAGAACA | 0.0452 |
| ACTCCGCA | -0.0105 |
| CCATGGCA | 0.0272 |
| TAGGCGCA | 0.0403 |
| GAAACAGC | -0.0737 |
| CCGCTAAC | -0.00623 |
| ACCCGGGA | -0.0703 |
| CACAATCG | 0.0785 |
| CCCGTCTA | -0.121 |
| ACAGACCG | -0.126 |
| ACACATCA | -0.151 |
| GAGGGGAC | -0.0993 |
| CGATTAAC | -0.0107 |
| CATTACCG | 0.0345 |
| ACTTAAGT | 0.212 |
| ATTGTGCG | 0.0629 |
| ACAGAGCG | -0.112 |
| TCTGGACA | 0.0422 |
| ACTGTCTC | -0.0617 |
| CATGAGTA | -0.0686 |
| AGGATTCG | 0.018 |
| AGCTTCGA | -0.12 |
| ATGGTGCG | 0.0364 |
| ACGGCCCT | -0.0728 |
| CTAAGCTC | -0.0394 |
| CACTTAAG | 0.0974 |
| GAGTTTGC | -0.123 |
| GCACGCCC | -0.00875 |
| GCCCATGA | 0.0588 |
| GGTCCTCA | -0.0754 |
| AATCATGT | 0.235 |
| ATGCCTTA | -0.158 |
| ATATTTGA | 0.0318 |
| AGTCACCA | -0.113 |
| AATGGCAG | -0.0159 |

Going on with the list:

Sequence	PBM E-score
ACATAACA	0.273
AGGTGACA	0.155
CGCTACCG	-0.00025
GGTCTCTA	-0.17
AGCATAGC	-0.108
GGAGTAAC	-0.0257
AGCGATCA	-0.00831
CAGCGCGA	0.00691
CATGGGGG	-0.271
TGCCGGCA	0.148
AAAGCAGG	-0.0901
GCATCCCA	-0.303
GGTTGGTA	0.101
CTATGATA	0.0824
CAGCTCTA	-0.206
GCCCCGAA	-1e-05
TACTGAGA	-0.037
ACTTCTTA	0.0763
AAACGGGA	0.0625
AAGCTCCT	-0.289
AAAAATCG	-0.00417
GTGCAGGA	-0.057
AAGTTCCG	0.0348
CCAATTTA	0.193
CTTCCCCA	-0.11

Sequence	PBM E-score
AGAATGGA	0.091
ATTGCCGA	0.027
AGCCTGCA	-0.0129
CTATATAG	0.0376
GGTGTACA	-0.029
CTAAAGTA	-0.234
AACGCCTC	-0.217
CCAGTAAC	0.0826
CAGGGGCG	-0.0592
ATCGCAAG	0.0727
CGCTTATC	0.103
ACCCGTAG	-0.367
ACAACCTC	-0.135
TTCATGAA	0.181
GCGTGTGA	0.0809
AACGACCT	-0.0376
CTGTGTGA	0.111
CATTGCGG	-0.124
GACGAACC	0.0741
ATGGTAGC	-0.0481
ACTTGTAC	-0.0789
CCTCTTCC	-0.235
AAGGTACC	0.0111
GTTACAAA	0.223
CCAGCGCA	-0.0267

Sequence	PBM E-score
AGGGGCTC	-0.212
TACCCTCA	-0.188
GCCCAGTA	-0.141
TAAGCGTA	-0.0691
CGCGGTTC	0.0904
GAGGCACA	-0.207
AGGAGGCG	-0.229
GGCCGTTA	0.0668
GGGGGGCA	-0.471
GTCGTTTA	0.00937
ACCCCAGT	-0.109
AGATGATG	0.0867
CAGGTAGA	-0.0922
CTTCCATA	-0.244
CAGGAAGG	-0.286
TCGGTAGA	0.176
CAGTCTAA	0.0662
TGACCCCA	-0.18
GGCTAGCC	-0.382
AGTTAACG	0.0767
ACGGGCTG	0.0123
AGAGGGAG	-0.107
AAAATCTT	0.0179
CTTAGCTC	-0.151
GGGCATTA	-0.152

Sequence	PBM E-score
AATTACCT	0.0297
CCTTCCAC	-0.193
GCTCACTA	0.146
ACCGGCAC	0.175
ACAGTGAG	0.0189
CTTAGACC	0.0241
GGAAACAA	-0.0691
ACGAATAC	0.132
AATACGGC	0.153
AGTTGTGA	0.14
CCAAACAA	0.0792
ACACCATG	-0.187
AAGCCTCG	-0.00547
GATCAGAC	-0.0211
CCGCCCGC	-0.0183
ATTATTGC	0.176
CCTTGTAA	0.049
AACAATCC	0.155
CAATCAAA	0.019
CCCCTGTA	-0.107
CGGCTGTC	-0.113
ACACTAAT	0.141
CCCGGCTC	-0.191
CGAGCGTC	-0.016
CCTTCGAA	0.136

Sequence	PBM E-score
AGACTCTA	-0.191
TAGATTAA	0.135
AAGGCGAC	-0.103
CGTTGTGC	-0.119
CTATCGGC	-0.0279
CAGCTGAC	0.182
CACACTCG	0.0692
ACGGCAGT	-0.15
ATCCACAA	0.165
CACGTCGC	-0.0804
GCAGGAGC	-0.195
GAGATATA	0.086
ATTCCTTC	0.105
AAGTTGCA	0.0503
GAAGCAAA	-0.031
AAGCGGCA	0.108
CAGTAGGC	-0.0171
AACCCAAG	-0.0408
CGGGGCGA	0.0369
AGTACGAT	-0.0359
CTCGAGAC	0.0617
ATCAACTC	0.0517

— the supplement of paper PMC3334620
